# Results are given in words; binding and its absence hold for the method and conditions named. Binding seen in cells or lysates may run through a third protein. Some results given as binding are weak or reduced against the parent protein; the word gives no strength.
# Sequences of proteins named here, by UniProt entry; tags and fusion partners are left off. A change or cut given only in a name is not applied to a line headed by its entry. Residues count along the entry.
# UniProt P0A6F5, residues 2-548: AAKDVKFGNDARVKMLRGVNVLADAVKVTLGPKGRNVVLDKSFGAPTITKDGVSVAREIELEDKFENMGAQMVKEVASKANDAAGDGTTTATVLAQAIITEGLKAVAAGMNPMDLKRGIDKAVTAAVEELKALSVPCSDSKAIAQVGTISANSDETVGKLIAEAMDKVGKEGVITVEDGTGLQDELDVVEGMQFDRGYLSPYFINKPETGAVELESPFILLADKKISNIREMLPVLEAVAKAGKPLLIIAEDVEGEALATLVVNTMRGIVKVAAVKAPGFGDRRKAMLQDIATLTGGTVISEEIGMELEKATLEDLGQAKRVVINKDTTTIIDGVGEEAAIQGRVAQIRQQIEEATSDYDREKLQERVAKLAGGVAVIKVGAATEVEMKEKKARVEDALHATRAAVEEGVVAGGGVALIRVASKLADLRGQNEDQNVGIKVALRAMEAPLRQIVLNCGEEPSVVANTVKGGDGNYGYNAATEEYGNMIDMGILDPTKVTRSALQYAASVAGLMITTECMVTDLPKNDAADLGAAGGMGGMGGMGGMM
# UniProt P97477: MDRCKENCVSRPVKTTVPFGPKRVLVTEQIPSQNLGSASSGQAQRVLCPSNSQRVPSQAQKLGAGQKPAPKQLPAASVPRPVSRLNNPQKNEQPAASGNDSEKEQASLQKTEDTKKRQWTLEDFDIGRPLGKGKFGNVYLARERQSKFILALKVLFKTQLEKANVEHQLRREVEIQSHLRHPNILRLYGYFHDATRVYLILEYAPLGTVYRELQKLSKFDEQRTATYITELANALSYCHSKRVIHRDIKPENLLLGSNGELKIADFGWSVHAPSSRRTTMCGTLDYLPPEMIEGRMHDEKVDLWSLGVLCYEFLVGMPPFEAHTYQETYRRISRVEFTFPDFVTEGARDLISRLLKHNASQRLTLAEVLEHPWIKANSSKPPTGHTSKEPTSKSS
# UniProt O70126: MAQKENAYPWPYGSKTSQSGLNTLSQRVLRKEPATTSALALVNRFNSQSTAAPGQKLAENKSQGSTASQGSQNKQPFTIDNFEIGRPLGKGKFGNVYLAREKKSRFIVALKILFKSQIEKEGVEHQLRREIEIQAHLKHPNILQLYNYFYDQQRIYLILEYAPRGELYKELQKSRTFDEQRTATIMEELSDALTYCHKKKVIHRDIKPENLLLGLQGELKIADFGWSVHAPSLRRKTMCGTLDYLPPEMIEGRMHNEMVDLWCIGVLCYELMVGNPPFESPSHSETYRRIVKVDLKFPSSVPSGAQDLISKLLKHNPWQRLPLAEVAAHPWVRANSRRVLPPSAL
# Assays:
# [1] = target: bacterial chaperone protein GroEL (E. coli) (UniProt P0A6F5); experiment: copurification; complexes removed on Q-Sepharose
# [2] = target: bacterial chaperone protein GroEL (E. coli) (UniProt P0A6F5); experiment: copurification from E. coli lysate
Substance,binding [1],binding [2]
mouse Aurora-A residues 98-395 (corresponds to 107-403 human) (from UniProt P97477 97-395) (enzyme),binds,
mouse Aurora-A residues 116-381 (corresponds to 125-391 human) (from UniProt P97477 116-381) (enzyme),binds,
wild-type full-length mouse Aurora-B (from UniProt O70126 1-345) (enzyme),,binds

# From patent publication US20080020412A1, “Aurora expression constructs” (priority 2006, published 2008)
